Data from PMC10937712, “Natural variation in OsMYB8 confers diurnal floret opening time divergence between indica and japonica subspecies”.
Construct, isoform or probe ends are uncertain for at least one entry. A weaker result is weaker than the reference pair of the same experiment. At least one verdict was read from the data and is not stated in words by the source. Where a protein sequence is shown, tags need not be part of it.

Biological target: T1, OsMYB8 (UniProt A0A0P0V5Q1)
T1 sequence (looked up, limits assumed): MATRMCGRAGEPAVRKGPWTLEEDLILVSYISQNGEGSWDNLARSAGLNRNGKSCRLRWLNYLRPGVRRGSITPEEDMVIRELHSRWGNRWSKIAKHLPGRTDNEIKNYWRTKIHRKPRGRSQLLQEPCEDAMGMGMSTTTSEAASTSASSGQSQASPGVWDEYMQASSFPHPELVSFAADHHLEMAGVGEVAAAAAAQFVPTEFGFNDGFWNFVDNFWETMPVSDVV
Test: EMSA
Conditions: Beyotime chemiluminescent EMSA kit binding buffer (composition, salt, pH not stated), 20 min, room temperature, 5% native PAGE; 5x and 20x cold competitor; recombinant protein; protein details: N-terminal GST (pGEX-4T1); label: biotin

Question: Does “AGTTAGGTACGTTTTCTGGAGTTACATGTTTAGCCATTTAGGTACGTTTTTTAGGTG (double strand) [TTAGGT-probe]” bind?
Answer: Result: binds

Question: Does “AGAGCAGTACTGTAGTTGGGTACGCGGAGCAAGACGATGAGTTAGGCCGG (double strand) [TTAGGC-probe]” bind?
Answer: Result: binds

Question: Does “CGGCGCGACGCACACGCACGCAAACCAAATCTTTTCGGACCAACTCCTCC (double strand) [TTTGGT-probe]” bind?
Answer: Result: binds

Same assay, conditions: binding largely abolished; Beyotime chemiluminescent EMSA kit binding buffer (composition, salt, pH not stated), 20 min, room temperature, 5% native PAGE; 5x and 20x cold competitor; recombinant protein; protein details: N-terminal GST (pGEX-4T1); label: biotin

Question: Does “CGGCGCGACGCACACGCACGCAAATTAAATCTTTTCGGACCAACTCCTCC (double strand) [TTTAAT-mprobe]” bind?
Answer: Result: binds more weakly

Question: Does “AGTTAAATACGTTTTCTGGAGTTACATGTTTAGCCATTTAAATACGTTTTTTAAATG (double strand) [TTAAAT-mprobe]” bind?
Answer: Result: binds more weakly

Question: Does “AGAGCAGTACTGTAGTTGGGTACGCGGAGCAAGACGATGAGTTAAACCGG (double strand) [TTAAAC-mprobe]” bind?
Answer: Result: binds more weakly
